These are yes or no findings as the source states them, for the method shown. In cells and extracts the contact can be indirect. Here binding means that the protein was enriched with, or labelled near, the bait; the list need not be complete.
T1: SWC2 (S. pombe) (S. pombe) (UniProt Q9P790)
T1 sequence: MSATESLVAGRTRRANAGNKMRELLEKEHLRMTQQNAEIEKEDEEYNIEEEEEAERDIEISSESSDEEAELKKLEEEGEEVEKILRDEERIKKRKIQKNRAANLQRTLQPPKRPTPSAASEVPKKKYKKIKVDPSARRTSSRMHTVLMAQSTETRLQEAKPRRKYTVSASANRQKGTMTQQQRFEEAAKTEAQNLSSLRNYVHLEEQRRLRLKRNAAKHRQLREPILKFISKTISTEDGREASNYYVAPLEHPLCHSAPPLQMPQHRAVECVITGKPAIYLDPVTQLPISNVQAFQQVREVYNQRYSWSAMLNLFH

Chains of the proteins cited; added tags and fusions are not shown.
UniProt Q9C0X6: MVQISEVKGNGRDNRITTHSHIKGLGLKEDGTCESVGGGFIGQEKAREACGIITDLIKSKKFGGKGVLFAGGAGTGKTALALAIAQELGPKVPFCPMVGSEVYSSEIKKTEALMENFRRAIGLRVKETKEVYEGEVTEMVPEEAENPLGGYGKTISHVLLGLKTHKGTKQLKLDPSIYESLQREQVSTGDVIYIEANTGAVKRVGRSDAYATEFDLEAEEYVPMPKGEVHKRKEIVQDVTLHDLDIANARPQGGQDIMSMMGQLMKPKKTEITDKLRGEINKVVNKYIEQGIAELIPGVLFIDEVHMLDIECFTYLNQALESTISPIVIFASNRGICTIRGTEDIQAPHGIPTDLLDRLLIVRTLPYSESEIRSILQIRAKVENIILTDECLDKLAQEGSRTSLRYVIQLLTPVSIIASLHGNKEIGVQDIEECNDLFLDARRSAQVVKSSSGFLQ

T2: SWC4 (S. pombe) (S. pombe) (UniProt O14308)
T2 sequence: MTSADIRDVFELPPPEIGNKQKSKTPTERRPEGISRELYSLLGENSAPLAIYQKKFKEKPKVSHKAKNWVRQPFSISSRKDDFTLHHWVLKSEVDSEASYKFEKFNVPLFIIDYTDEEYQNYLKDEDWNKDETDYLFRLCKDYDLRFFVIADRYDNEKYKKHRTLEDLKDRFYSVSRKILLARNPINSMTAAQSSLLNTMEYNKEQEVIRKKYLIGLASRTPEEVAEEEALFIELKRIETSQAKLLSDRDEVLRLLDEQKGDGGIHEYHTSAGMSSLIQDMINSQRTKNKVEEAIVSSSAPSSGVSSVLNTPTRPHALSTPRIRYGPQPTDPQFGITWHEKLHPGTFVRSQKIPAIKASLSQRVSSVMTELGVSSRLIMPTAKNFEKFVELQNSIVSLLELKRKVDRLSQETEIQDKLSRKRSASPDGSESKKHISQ

T3: YAF9 (S. pombe) (S. pombe) (UniProt Q10319)
T3 sequence: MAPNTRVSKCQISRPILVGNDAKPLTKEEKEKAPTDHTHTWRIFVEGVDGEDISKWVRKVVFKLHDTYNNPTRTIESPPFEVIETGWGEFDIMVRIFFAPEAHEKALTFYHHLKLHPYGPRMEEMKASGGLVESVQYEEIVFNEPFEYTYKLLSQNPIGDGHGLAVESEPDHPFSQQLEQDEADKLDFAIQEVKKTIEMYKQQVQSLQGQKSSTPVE

T4: IES6 (S. pombe) (S. pombe) (UniProt Q9UTE8)
T4 sequence: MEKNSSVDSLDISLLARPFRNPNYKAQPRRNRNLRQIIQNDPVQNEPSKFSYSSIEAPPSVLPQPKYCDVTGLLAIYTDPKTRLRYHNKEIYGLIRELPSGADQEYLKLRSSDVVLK

T5: Sp_Alp13p (S. pombe) (UniProt O13953)
T5 sequence: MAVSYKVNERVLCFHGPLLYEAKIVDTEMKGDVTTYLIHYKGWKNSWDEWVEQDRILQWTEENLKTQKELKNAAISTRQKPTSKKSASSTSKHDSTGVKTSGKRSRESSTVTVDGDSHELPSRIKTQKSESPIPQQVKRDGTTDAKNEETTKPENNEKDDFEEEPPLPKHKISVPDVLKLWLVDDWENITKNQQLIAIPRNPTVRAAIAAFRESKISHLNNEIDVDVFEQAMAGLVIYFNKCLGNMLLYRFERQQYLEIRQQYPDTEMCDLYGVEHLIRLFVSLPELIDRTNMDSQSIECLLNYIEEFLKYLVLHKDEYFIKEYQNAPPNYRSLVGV


What was measured:
Assay in all cases: affinity purification with mass spectrometry; TAP of baits TAP-tagged at their genes from S. pombe extracts; eluates on 6-18% gels, Coomassie, bands and slices identified by MALDI peptide mapping and LC-MS/MS; common background removed, A-index cut-off 1.75
[1] = target: T1, SWC2 (S. pombe) (S. pombe)
[2] = target: T2, SWC4 (S. pombe) (S. pombe)
[3] = target: T3, YAF9 (S. pombe) (S. pombe)
[4] = target: RVB1 (S. pombe) (S. pombe) (UniProt Q9C0X6)
[5] = target: T4, IES6 (S. pombe) (S. pombe)
Sp_Alp13p (S. pombe) = target: T5, Sp_Alp13p (S. pombe)

binding [1] | binding [2] | binding [3] | binding [4] | binding [5] | binding (Sp_Alp13p (S. pombe)) | Binder
binds | binds | binds |  |  |  | ARP6 (S. pombe) (protein, UniProt O94241 1-401) MGLPPKTIVLDNGAYHIKAGFAGGKVVEIPNCLTRSKDGNRLFLGNELANCNDFTTLQFRRAHEKGYLVHWSTETAVWDLVMRNVGVMEPSMADYSLLLTQPVFTMPSIEHNTIQLVFEEFQFDAYLPCTPAELIPWDHGSFTMNQEDAYTGQHGECVLVIDSGYSFTHIIPVIDFSVQEQAVKRVDVGGKLLTNYLKEVISYRKYNMMEETYIVNEIKESVCYVSQNFKEDMEICHEKPRSKLEICYALPDYSTGKHGYIVRDINQKIEQQVLNLSNERFMIPELLFSPSDIEIREAGIPEAVMQSVTHFPENIQAMLLENVVTIGGNCKFPGFHKRLSSELRSLAPANWEVKVFEPSDPICFPWKKASHMPLEHWNANKITRSEYSEHGANIMTRKRRI
binds | binds | binds | binds |  |  | SWR1 (S. pombe) (protein, UniProt O13682 1-1288) MTYEESEKNKNGLSSYIKKEGSSDLKVRVRFREPKLLVTHSGHITEQPKYEHLEQYLDSYVSLEDGDHDPKEAKELVFREVQLRHRINEFRKKGYFTAEAPVELKKAPSSNNIPISYRDNLLSHVNGYARSMHNDRKVRASRSRRISGMILAHFKRLSGADEKKAKEEDKRIRLLAKRTAWEIRKKWKVIEREVRRRRAERAAEAQRVAGKEQLANILKHSTDLLEARIERANINISAQTSESAVDWNYLLKTSDDLLSVDELKLKYSNPDLIKNIEREEEAEETSDDEPLSSEDEENEDEDITEESNLRKRKVSDKTRVVNKHPPSLRRSRRFFAKKSYNHVSDLDGEVIVMKKEDITDGVSTKKDLNDGDQNEVPLHDTGSSSSLSLLYNEDVASKKKRRVNDDGLARKKSIAGISEQRKFDEPNGSPVLHANKIQVPFLFRGTLREYQQYGLEWLTALHDSNTNGILADEMGLGKTIQTIALLAHLACEKENWGPHLIIVPTSVMLNWEMEFKKFLPGFKILTYYGNPQERKEKRSGWYKPDTWHVCITSYQLVLQDHQPFRRKKWQYMILDEAHNIKNFRSQRWQSLLNFNAEHRLLLTGTPLQNNLVELWSLLYFLMPAGVTQNNSAFANLKDFQDWFSKPMDRLIEEGQDMNPEAMNTVAKLHRVLRPYLLRRLKTEVEKQMPAKYEHVVYCQLSKRQRFLYDDFINRARTREILASGNFMSIINCLMQLRKVCNHPNLHEERPIVTSFALRRSAIADLEIKDLLVRKRLLHEEPMTKLDLSTLRLIRTDSEAFDTFVSDELNSLCATNAYNRISTFLRMQIDEECKPCQFKKSNFKEHFQNKIYQEQLDKLNFQKYLNESKCSHSPIYGSNLIRLAEKLPKHSTSIDYTLYAKDDPLYLLNTTKALRSCILSTEERASNMKEIIQRFACITPKAVVVDLPELFCKTIPRDLLYEVSRKINPLHQASTRLAIAFPDKRLLQYDCGKLQVLDRLLKDLVSNGHRVLIFTQMTKVLDILEQFLNIHGHRYLRLDGATKIEQRQILTERFNNDDKIPVFILSTRSGGLGINLTGADTVIFYDSDWNPQLDAQAQDRSHRIGQTRDVHIYRLISEYTVESNMLRRANQKRMLDKIVIQGGEFTTEWFRKADVLDLFDLDDESLKKVKADSDSGSTKNEENWEVALAAAEDEEDVQAAQVARKESALEQTEFSETSTPQAMLTKDSTPLSSDSATPGFERDSTEEQSNTNDMDEDRSELEEDLDETVGHIDEYMISFLEQEGTSDEW
binds | binds | binds | binds |  |  | VPS71 (S. pombe) (protein, UniProt O59669 1-139) MFVTPIEHAVQKRKKQKQRSVVDPVTRERQLKRNLADLEKDNFSDIRFEIPKDLLQRRVLPISVRRILSSRKTFVNYLDETPNSRYNTCVAKPSYKPPRKFCNVCGYWGKYACQNCGTSYCSKGCEVIHSETRCMKVYA
binds | binds | binds | binds |  |  | SWC3 (S. pombe) (protein, UniProt Q10210 1-391) MSLNGTFSHNNGLPSGEREESETPGGSTSIISSSFLLQPRASDSRPDALEGKYDKNVLARALKKSRDSCLNGALFEKFLPEENYKLSGGTVFSHVRYIDTATLCVGPLRFEDTKFYFVHYSNSPIEPFAKPNISYVNPQWNELDYRPDSQKLSPGKEKNTLDLKHCLLPSPEYKAPPAKKPEDYEASPGEPVEPLITDASLQRLKSRANEDPTIFNILKRISKGLGTPEQCMLLHNELIGPSTFPLPKRAKKPPRKRITLSINQQDKDEFFDSLINNKKEVRRHFDIVMEFSDAPDTKWIFPRESVLSHVFNTDKKKLEALSLLFHVYRPTEDRNVIDVKTEIKIRDFTPTLRSAIELLTSGTHADRLLSEKRRRMSNLEPKYYMQFHEQT
binds | binds | binds | binds |  |  | BDF1 (S. pombe) (protein, UniProt Q9Y7N0 1-578) MSSESRENEVKAETKDEIANDGSPQLNGDNNIQSSDGHNDENEESLSRKRDSSGATVGDLKQEEKESMPKKEPEPTVKKIRGSGMPPPQQKYCLAIVRQLKRTKNSAPFKVPVDPIKQNIPDYPTIVKNPMDLGTIEKKLTSYEYSVPQEFIDDMNLMFSNCFLYNGTESPVGSMGKALQEVFERQLKQLPDAEQPAAAPVKKSKQKSASTAPPRTRRNSSVSSTSASVAASTAPKAASPAVLPEGKPRRRKNNSQMRFCSTVLKELYKRQYESFAFPFYQPVDPVACDCPDYFDVIKEPMDLSTIQSKLNKNEYSTLEEFESDILLMFNNCFTYNPPGTPVHVMGRQLENVFKEKWEARPKFDDATLVKQQEAETDALFDNGEEEEALMSEEEINGAKFAAVDKQISMLQDTLEAMKAKKMNRMRKPRRRDLTKEYGPITYAMQNELAERCNYLSAEQLSNVAEILREEMPWLRDTDEIEIDVGNMKPEVFHRIYRYVCKPDADSSEPASPVLMPTKPEKKKGRVLSETEQAEKIRRLQQQLDRFAGKTSPTSPESNNAANVSDSESDNESESSESA
binds | binds | binds | binds | binds | binds | ALP5 (S. pombe) (protein, UniProt Q9P7X7 1-433) MTSAFYGGDEVSAIVIDPGSKWTRIGFSGEDIPKCVLPSYCGEFSDGRRLFGEEYIYKSNPGMEIKNAIRNGWVENWDVTVDLWRYGLEQQLKTNPLEHPILITEPFDNPPENRVKTLETMFESLRCPATYLAKQETCAAFASGKGTACLVDIGAERSSVSAIYDGFVLQKGYQVQHFSGNAINDILAQTLRDKNFEVMPKYLVKSKNPVEIGQPANCELRPRDTTDSYHQFQVQRVYDEWKEECALISDVPFSSETTIAESEFEFPDGSRMMFGAERYQIPEHLFVPGSDEEMNEEPSKPIEQTENNEVSQQDSSVTNTSSRILGIPQLFQNCISECDVDIRASLLNNVIVCGGTSLMQGFSLRLQNELSKLYPGSRLKIHASGHVVERSYASWLGGSILSSLGTFHQLWISRQEYEEHGSDRLALIEKRCK
